PubChem BioAssay AID743454 | Peter MacCallum Cancer Centre – 2014
In all, the deposit lists about 18,000 reagents; this is a part drawn at random. Over the whole deposit, 450 (2.5%) are marked active. 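Single biological run; no consistent viability z cut-off exists, so the class columns, not z-scores, define the calls.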

- Assay: 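Search for knock-downs that restore vorinostat killing in resistant colon cancer cells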 (primary screen)
- Cell system: human HCT116-VR colon cancer cells, selected for vorinostat resistance
- Reagent: siRNA pool against human genes, 40 nM siRNA pool
- Time to read-out: vorinostat for 24 h, read-out about 72 h after transfection
- Treatment: vorinostat at 2.5 µM final
- Detection: 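Two measures, CellTiter-Fluor viability and luminescent caspase 3/7 activity, each as fold change against same-plate mock wells, mean of duplicates, then screen-wide robust z-score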
- Scale: viability robust z-score: higher = more viable cells than screen typical; caspase robust z-score: higher = more caspase 3/7 activity than screen typical
- Hit rule: 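a knock-down is a hit when classed RV1 or RV2 for lowered viability, or CA1 or CA2 for caspase activation; those lethal without drug were dropped; hits were retested singly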

Target gene	viability hit class	caspase hit class	viability robust z-score	caspase robust z-score	Call
LPAR4 (lysophosphatidic acid receptor 4)	no change	no change	-1.82	4.05	inactive
RGMA (repulsive guidance molecule BMP co-receptor a)	no change	no change	0.69	-0.96	inactive
MIEF1 (mitochondrial elongation factor 1)	no change	no change	-0.71	0.08	inactive
TMCO2 (transmembrane and coiled-coil domains 2)	no change	no change	0.14	-0.78	inactive
SOD1 (superoxide dismutase 1)	no change	no change	1.68	3.49	inactive
APPL2	no change	no change	-0.46	-0.24	inactive
PNISR (PNN interacting serine and arginine rich protein)	no change	no change	0.65	-0.48	inactive
ZPR1 (ZPR1 zinc finger)	no change	no change	-1.15	0.68	inactive
IL15 (interleukin 15)	no change	no change	0.86	0.74	inactive
CCDC141 (coiled-coil domain containing 141)	no change	no change	1.98	-0.51	inactive
CEP72 (centrosomal protein 72)	no change	no change	-3.25	-0.55	inactive
KRT31 (keratin 31)	no change	no change	0.74	0.58	inactive
ID3 (inhibitor of DNA binding 3)	no change	no change	0.72	0.4	inactive
NT5C1A (5'-nucleotidase, cytosolic IA)	no change	no change	0.46	-0.12	inactive
ITGBL1 (integrin subunit beta like 1)	no change	no change	1.2	-0.64	inactive
CSTB (cystatin B)	no change	no change	-2.23	1.5	inactive
LINC02145 (long independently transcribed non-coding RNA 2145)	no change	no change	-0.16	0.5	inactive
SLC13A2	no change	no change	-1.85	4.63	inactive
TCEAL8 (transcription elongation factor A like 8)	no change	no change	0.35	0.14	inactive
HYI (hydroxypyruvate isomerase (putative))	no change	no change	0.12	-0.2	inactive
FNDC5 (fibronectin type III domain containing 5)	no change	no change	0.36	-1.2	inactive
FDX1 (ferredoxin 1)	no change	no change	-0.17	-0.44	inactive
H2AC15 (H2A clustered histone 15)	no change	no change	-0.01	0.33	inactive
CWC15 (CWC15 spliceosome associated protein)	no change	no change	-2.63	0.04	inactive
GRSF1 (G-rich RNA sequence binding factor 1)	no change	no change	-0.09	2.7	inactive
CHRNA3 (cholinergic receptor nicotinic alpha 3 subunit)	no change	no change	-0.11	0.26	inactive
KRTAP22-1 (keratin associated protein 22-1)	no change	no change	-1.28	-0.53	inactive
FAM167B (family with sequence similarity 167 member B)	no change	no change	-0.44	-0.97	inactive

Laid out differently: results already given.
Target gene,viability hit class,caspase hit class,viability robust z-score,caspase robust z-score,Call
TMCO2 (transmembrane and coiled-coil domains 2),no change,no change,0.14,-0.78,inactive
SOD1 (superoxide dismutase 1),no change,no change,1.68,3.49,inactive
APPL2,no change,no change,-0.46,-0.24,inactive
PNISR (PNN interacting serine and arginine rich protein),no change,no change,0.65,-0.48,inactive
ZPR1 (ZPR1 zinc finger),no change,no change,-1.15,0.68,inactive

The results go on:
Target gene	viability hit class	caspase hit class	viability robust z-score	caspase robust z-score	Call
RRM2B	no change	no change	-0.02	1.03	inactive
XRCC5 (X-ray repair cross complementing 5)	no change	no change	0.2	-0.54	inactive
CTH (cystathionine gamma-lyase)	no change	no change	-0.12	-0.66	inactive
IRX5 (iroquois homeobox 5)	no change	no change	-0.09	2.06	inactive
AQP9 (aquaporin 9)	no change	no change	0.45	0.2	inactive
SLC22A14	no change	no change	-0.03	-0.81	inactive
ACAP2 (ArfGAP with coiled-coil, ankyrin repeat and PH domains 2)	no change	no change	1.52	-0.13	inactive
IPCEF1 (interaction protein for cytohesin exchange factors 1)	no change	no change	0.16	-0.12	inactive
CCDC117 (coiled-coil domain containing 117)	no change	no change	-1.4	4.06	inactive
ZNF3 (zinc finger protein 3)	no change	no change	-0.6	-0.8	inactive
SLC25A11	no change	no change	-1.82	1.82	inactive
BCL2A1 (BCL2 related protein A1)	no change	no change	1.25	-0.96	inactive
MYL6B (myosin light chain 6B)	no change	no change	0.39	-0.42	inactive
C1D (C1D nuclear receptor corepressor)	no change	no change	1.48	0.86	inactive
CAPN10 (calpain 10)	no change	no change	-0.98	1.38	inactive
SLC25A37	no change	no change	-1.46	0.68	inactive
PCGF5 (polycomb group ring finger 5)	no change	no change	0.37	-0.71	inactive
EFNB3 (ephrin B3)	no change	no change	-2.49	2.91	inactive
YES1 (YES proto-oncogene 1, Src family tyrosine kinase)	no change	no change	1.46	-0.68	inactive
HCN2	no change	no change	-0.82	-0.32	inactive
PICALM (phosphatidylinositol binding clathrin assembly protein)	no change	no change	-0.45	-0.74	inactive
P3H2 (prolyl 3-hydroxylase 2)	no change	no change	-0.47	-0.32	inactive
LINC00173 (long independently transcribed non-coding RNA 173)	no change	no change	-0.4	-0.31	inactive
MORN4 (MORN repeat containing 4)	no change	no change	0.68	1.77	inactive
PCDH11Y (protocadherin 11 Y-linked)	no change	no change	-0.68	-0.8	inactive
PNMA1 (PNMA family member 1)	no change	no change	0.92	-0.84	inactive
FGF22 (fibroblast growth factor 22)	no change	no change	-0.76	-0.84	inactive
OR2G2 (olfactory receptor family 2 subfamily G member 2)	no change	no change	0.01	0.09	inactive
COA5 (cytochrome c oxidase assembly factor 5)	no change	no change	-0.62	3.74	inactive
SERPINA11 (serpin family A member 11)	no change	no change	0.71	-0.11	inactive
LYPLA1 (lysophospholipase 1)	no change	no change	-0.61	0.46	inactive
STUB1 (STIP1 homology and U-box containing protein 1)	no change	no change	-0.04	0.6	inactive
ACTN4 (actinin alpha 4)	no change	no change	1.04	-0.25	inactive
GPR156 (G protein-coupled receptor 156)	no change	no change	-0.21	-1.24	inactive
FBN1 (fibrillin 1)	no change	no change	0.55	-0.66	inactive
C22orf31 (chromosome 22 open reading frame 31)	no change	no change	1.58	0.86	inactive
CCNJ (cyclin J)	no change	no change	-0.11	-0.92	inactive
ATP6V1B2 (ATPase H+ transporting V1 subunit B2)	no change	CA2 (caspase activation)	-1.6	7.62	active
UBLCP1 (ubiquitin like domain containing CTD phosphatase 1)	no change	no change	0.76	0.28	inactive
HLA-DQA2 (major histocompatibility complex, class II, DQ alpha 2)	no change	CA1 (caspase activation)	-1.12	6.63	active
FAM193A (family with sequence similarity 193 member A)	no change	no change	0.32	0.31	inactive
PACS1 (phosphofurin acidic cluster sorting protein 1)	no change	no change	0.08	1.77	inactive
GCA (grancalcin)	no change	no change	-0.84	-0.52	inactive
TNFRSF17 (TNF receptor superfamily member 17)	no change	no change	-1.49	3.62	inactive
KRT4 (keratin 4)	no change	no change	-1.17	0.6	inactive
